Consider 27 substances from PMC8939790.

Amino acid sequences for entries named in this document (tags omitted). A change or cut given only in a name is not applied to a line headed by its entry.
UniProt E9BBJ9: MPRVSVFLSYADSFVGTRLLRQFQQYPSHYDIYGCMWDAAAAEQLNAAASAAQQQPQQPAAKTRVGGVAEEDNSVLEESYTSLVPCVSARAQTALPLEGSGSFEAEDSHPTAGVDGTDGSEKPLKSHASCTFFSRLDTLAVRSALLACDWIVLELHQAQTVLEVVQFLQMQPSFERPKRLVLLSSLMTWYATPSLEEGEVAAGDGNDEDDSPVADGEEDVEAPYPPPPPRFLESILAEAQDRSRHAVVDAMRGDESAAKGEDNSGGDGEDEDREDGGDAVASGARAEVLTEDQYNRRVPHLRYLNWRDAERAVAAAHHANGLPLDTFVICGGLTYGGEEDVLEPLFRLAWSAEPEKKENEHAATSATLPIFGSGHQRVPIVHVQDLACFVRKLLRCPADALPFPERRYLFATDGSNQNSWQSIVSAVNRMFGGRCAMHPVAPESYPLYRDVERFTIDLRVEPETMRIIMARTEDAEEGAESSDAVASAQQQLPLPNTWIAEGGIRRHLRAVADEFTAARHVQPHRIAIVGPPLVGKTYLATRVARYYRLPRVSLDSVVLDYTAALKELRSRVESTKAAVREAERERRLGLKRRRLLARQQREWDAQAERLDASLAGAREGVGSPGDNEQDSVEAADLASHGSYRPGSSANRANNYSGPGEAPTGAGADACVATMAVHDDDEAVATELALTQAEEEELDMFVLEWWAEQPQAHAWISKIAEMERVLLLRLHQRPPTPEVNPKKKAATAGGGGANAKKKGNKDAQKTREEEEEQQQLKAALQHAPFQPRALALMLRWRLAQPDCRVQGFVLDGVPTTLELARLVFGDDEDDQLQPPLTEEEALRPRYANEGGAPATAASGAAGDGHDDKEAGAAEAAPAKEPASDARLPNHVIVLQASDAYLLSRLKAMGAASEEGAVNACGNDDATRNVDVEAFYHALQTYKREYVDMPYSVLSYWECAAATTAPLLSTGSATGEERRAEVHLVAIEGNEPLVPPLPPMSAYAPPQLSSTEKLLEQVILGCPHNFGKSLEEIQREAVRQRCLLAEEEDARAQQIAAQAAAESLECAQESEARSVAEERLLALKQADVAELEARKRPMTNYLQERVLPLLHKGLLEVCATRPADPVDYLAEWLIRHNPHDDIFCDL
UniProt A0A3S5H4X0: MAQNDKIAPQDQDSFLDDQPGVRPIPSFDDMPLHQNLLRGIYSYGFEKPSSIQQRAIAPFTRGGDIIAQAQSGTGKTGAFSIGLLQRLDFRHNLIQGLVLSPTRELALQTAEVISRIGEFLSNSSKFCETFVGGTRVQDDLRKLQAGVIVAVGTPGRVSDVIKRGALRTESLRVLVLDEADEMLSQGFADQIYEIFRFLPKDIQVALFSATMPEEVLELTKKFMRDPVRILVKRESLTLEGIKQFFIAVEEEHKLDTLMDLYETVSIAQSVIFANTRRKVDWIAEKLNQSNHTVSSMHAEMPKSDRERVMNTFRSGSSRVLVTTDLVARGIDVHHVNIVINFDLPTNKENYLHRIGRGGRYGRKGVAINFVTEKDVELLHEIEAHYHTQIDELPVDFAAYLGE
UniProt A0A3S5H6R8: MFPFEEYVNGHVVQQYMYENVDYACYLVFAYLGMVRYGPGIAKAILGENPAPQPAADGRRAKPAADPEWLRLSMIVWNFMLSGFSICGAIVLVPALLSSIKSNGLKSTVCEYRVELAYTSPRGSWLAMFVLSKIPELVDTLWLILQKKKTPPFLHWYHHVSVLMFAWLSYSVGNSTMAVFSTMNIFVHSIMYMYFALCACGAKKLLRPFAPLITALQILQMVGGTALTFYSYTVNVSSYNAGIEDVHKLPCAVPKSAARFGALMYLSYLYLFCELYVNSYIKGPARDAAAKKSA
UniProt A0A3Q8IJ37: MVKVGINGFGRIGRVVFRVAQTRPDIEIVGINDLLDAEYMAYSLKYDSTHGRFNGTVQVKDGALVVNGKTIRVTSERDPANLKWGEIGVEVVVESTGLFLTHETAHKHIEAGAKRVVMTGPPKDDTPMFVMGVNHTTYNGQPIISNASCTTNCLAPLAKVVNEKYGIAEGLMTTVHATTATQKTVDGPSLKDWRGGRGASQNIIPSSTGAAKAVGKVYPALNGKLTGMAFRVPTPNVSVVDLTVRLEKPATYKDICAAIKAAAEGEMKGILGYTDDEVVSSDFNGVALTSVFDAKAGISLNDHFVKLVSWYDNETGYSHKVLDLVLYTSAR
UniProt A0A451EJM7: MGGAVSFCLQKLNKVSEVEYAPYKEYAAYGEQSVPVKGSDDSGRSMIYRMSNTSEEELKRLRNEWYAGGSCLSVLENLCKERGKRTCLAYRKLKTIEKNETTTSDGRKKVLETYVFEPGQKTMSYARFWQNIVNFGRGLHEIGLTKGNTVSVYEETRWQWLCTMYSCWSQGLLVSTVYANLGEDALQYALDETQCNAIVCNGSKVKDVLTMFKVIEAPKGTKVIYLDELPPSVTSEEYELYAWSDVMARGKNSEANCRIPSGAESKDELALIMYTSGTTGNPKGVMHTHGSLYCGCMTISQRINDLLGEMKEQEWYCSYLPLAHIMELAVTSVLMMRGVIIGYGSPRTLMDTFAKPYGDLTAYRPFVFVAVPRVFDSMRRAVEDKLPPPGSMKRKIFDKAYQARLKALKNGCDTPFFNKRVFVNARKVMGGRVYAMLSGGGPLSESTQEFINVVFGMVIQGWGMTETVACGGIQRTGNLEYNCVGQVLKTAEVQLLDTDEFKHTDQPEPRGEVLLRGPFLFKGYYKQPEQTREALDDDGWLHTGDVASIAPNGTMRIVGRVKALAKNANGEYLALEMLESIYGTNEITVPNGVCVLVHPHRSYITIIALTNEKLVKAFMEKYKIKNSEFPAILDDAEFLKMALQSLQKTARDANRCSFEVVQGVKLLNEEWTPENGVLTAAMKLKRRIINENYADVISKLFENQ
UniProt A0A3S5H503: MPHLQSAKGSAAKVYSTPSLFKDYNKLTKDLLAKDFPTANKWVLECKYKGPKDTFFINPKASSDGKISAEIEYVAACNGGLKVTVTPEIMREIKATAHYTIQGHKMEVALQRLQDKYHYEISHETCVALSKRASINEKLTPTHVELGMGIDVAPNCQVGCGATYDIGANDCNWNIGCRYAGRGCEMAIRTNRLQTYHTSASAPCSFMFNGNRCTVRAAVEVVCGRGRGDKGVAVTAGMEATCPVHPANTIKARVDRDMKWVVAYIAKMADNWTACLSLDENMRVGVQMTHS
UniProt A0A3Q8IAP5: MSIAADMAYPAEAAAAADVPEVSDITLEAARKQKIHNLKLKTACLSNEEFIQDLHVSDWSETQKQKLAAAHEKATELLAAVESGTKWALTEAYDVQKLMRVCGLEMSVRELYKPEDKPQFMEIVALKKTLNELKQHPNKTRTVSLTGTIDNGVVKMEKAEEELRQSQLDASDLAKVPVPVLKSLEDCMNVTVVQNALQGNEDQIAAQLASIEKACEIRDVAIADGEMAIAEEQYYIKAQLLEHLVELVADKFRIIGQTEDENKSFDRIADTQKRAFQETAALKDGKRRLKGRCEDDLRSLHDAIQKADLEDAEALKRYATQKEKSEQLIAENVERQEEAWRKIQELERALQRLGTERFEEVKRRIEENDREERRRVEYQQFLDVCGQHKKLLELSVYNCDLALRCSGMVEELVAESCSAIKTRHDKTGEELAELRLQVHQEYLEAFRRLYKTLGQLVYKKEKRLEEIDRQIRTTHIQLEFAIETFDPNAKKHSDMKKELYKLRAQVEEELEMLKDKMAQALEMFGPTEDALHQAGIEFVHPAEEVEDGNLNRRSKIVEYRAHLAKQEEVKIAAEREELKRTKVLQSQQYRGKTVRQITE
UniProt A0A3Q8IEW8: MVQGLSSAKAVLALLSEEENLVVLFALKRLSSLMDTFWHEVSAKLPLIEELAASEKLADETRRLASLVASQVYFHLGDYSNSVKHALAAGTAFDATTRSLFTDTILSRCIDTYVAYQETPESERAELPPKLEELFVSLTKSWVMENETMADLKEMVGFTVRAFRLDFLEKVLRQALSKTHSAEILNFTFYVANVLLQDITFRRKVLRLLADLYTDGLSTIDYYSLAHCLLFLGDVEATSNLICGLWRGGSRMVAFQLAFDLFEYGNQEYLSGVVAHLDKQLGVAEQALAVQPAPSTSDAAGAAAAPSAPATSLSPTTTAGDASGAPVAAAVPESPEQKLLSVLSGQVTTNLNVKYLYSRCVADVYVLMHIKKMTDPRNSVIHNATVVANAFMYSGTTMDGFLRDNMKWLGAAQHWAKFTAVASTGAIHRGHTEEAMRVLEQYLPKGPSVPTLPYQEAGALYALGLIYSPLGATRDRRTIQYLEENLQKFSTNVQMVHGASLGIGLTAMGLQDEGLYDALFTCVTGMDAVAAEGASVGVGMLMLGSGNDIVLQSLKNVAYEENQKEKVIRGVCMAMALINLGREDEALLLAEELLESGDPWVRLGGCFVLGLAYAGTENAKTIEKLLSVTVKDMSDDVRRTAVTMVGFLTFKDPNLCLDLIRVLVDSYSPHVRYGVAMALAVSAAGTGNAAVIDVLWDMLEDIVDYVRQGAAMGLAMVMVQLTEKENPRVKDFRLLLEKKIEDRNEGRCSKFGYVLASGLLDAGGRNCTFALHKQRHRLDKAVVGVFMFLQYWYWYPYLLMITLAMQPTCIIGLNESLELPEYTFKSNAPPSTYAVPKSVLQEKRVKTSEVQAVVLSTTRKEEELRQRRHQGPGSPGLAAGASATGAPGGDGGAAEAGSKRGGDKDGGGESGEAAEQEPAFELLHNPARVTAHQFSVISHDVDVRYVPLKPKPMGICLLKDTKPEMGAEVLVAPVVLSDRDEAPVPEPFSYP
UniProt A0A3Q8ID36: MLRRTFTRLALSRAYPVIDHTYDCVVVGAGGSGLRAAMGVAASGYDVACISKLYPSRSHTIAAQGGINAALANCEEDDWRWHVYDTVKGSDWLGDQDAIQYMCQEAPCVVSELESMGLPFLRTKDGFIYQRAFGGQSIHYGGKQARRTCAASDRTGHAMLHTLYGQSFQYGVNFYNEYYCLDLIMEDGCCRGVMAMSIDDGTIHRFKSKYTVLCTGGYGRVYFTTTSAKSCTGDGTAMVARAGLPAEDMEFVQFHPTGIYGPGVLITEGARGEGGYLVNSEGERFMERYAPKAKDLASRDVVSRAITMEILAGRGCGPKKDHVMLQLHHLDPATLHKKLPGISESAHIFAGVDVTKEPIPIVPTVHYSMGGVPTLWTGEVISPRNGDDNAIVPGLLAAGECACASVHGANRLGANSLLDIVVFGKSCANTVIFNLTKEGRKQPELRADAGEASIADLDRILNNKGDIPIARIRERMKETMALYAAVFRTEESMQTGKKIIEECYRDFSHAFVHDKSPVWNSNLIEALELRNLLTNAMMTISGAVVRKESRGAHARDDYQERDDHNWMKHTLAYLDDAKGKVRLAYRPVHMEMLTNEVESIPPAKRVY
UniProt A0A3Q8IFJ7: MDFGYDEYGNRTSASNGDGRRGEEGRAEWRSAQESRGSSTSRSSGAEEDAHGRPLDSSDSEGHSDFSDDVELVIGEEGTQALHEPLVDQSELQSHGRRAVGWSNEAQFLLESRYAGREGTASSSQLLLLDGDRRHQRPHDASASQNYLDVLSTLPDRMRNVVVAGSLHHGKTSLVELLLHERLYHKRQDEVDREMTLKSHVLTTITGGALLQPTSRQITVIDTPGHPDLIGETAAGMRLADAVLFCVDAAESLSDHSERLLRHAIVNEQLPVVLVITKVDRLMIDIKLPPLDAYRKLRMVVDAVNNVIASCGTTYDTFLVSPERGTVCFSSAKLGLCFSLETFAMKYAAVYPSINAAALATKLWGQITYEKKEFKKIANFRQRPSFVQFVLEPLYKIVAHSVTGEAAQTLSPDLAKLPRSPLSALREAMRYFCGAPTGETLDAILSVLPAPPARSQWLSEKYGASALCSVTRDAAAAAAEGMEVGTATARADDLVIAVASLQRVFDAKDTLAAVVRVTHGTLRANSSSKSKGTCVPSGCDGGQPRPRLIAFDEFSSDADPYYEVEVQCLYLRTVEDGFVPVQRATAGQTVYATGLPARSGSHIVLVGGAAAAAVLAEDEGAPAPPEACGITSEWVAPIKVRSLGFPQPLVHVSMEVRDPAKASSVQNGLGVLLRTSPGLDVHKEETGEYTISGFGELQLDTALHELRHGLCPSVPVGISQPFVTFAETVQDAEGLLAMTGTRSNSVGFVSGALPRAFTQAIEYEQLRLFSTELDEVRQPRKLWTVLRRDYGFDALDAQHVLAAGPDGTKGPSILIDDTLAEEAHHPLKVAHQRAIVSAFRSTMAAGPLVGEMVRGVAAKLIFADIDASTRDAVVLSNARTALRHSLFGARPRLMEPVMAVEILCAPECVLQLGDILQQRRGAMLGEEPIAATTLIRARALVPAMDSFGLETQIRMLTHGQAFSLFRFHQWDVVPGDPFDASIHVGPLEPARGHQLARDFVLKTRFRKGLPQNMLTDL

These are yes or no findings as the source states them, for the method shown. Binding seen in cells or lysates may run through a third protein. Here binding means that the protein was enriched with, or labelled near, the bait; the list need not be complete.

The assay deals with GST-tagged Leishmania donovani profilin (Leishmania donovani). In words: affinity purification with mass spectrometry; purified GST-LdPfn or GST alone on glutathione-Sepharose beads, incubated with 2 mg clear lysate of L. donovani promastigotes overnight at 4°C, five washes with 1x PBS, eluted by boiling in SDS loading buffer, SDS-PAGE, LC-MS (Orbitrap Fusion); three biological replicates; only the target purified.

“AAA domain/Dpy-30 motif-containing protein, putative (from UniProt E9BBJ9)”: the binding result is recorded as “binds”.

Consider “ATP-dependent RNA helicase, putative (from UniProt E9BSI5)”, for which the binding entry is on record as “binds”. Consider “Aconitase, putative (from UniProt A0A3Q8IAZ4)”, for which the binding entry is on record as “binds”.

Regarding Actin (from UniProt C6KJC7), the binding entry was “binds”.

On to “Dihydrolipoamide acetyltransferase precursor, putative (from UniProt A0A3Q8IJE7)”, for which the binding entry is “binds”. Turning to “Dipeptidyl-peptidase III, putative (from UniProt A0A3S7WP65)”, the binding entry was “binds”. In the case of “Elongation factor 2 (from UniProt A0A3Q8IIX7)”, the binding entry is “binds”. “Eukaryotic initiation factor 4A-1 (from UniProt A0A3S5H4X0)”: the binding entry was “binds”. With “Eukaryotic translation initiation factor 3 subunit a (from UniProt A0A3Q8IDU4)” the entry was “binds”; with “Fatty acid elongase, putative (LDBPK_140670.1) (from UniProt A0A3S5H6R7)”, “binds”. Consider “Fatty acid elongase, putative (LDBPK_140700.1) (from UniProt A0A3S5H6R8)”, for which the binding entry is on record as “binds”. In the case of “Gamma-tubulin complex component 3-like protein (from UniProt A0A3Q8IKN4)”, the binding result is “binds”.

Consider “Glyceraldehyde-3- phosphate dehydrogenase, cytosolic (from UniProt A0A3Q8IJ37)”, for which the binding entry is reported as “binds”. The entry for “Isoleucyl-tRNA synthetase, putative (from UniProt A0A3Q8IPR2)” is “binds”.

As to “Long-chain fatty Acyl CoA synthetase, putative (from UniProt A0A451EJM7)”, the binding result is “binds”. With “Luminal binding protein 1 (BiP), putative (from UniProt A0A3S7X1F5)” the entry was “binds”. With “Membrane-bound acid phosphatase 2, putative (from UniProt A0A3Q8IR23)”, the binding result is listed as “binds”.

Take “Mitochondrial outer membrane protein porin, putative (from UniProt A0A3S5H503)”: the binding result is recorded as “binds”. As for “Oligopeptidase b (OBP) (from UniProt A0A3Q8IGZ3)”, the binding result was “binds”.

With “Paraflagellar rod protein 2C (from UniProt A0A3Q8IAP5)”, the binding entry is “binds”. For “Phosphatidylethanolamine-methyltransferase-like protein (from UniProt A0A3Q8IF60)”, the binding entry was “binds”. For the substance “Proteasome regulatory non-ATPase subunit 2, putative (from UniProt A0A3Q8IEW8)”, the binding entry is “binds”.

“Proteasome regulatory non-ATPase subunit, putative (from UniProt A0A3S7X246)”: the binding result is listed as “binds”. Take “Succinate dehydrogenase [ubiquinone] flavoprotein subunit, mitochondrial (from UniProt A0A3Q8ID36)”: the binding result was “binds”. On to Transketolase (from UniProt A0A3S5H7D7), for which the binding result is on record as “binds”. Regarding “U5 small nuclear ribonucleoprotein component, putative (from UniProt A0A3Q8IFJ7)”, the binding result is given as “binds”. Take “Ubiquitin hydrolase, putative (from UniProt A0A3Q8IIK1)”: the binding entry is given as “binds”.
